# Source: patent publication US20240398896A1, “INFLAMMASOME INHIBITION” (National University of Singapore, priority 2021, published 2024)
# At least one structure is not confirmed: it was looked up by name or label, or the drawing left a doubt.
# Biological target: T1, NLRP3 inflammasome (Mus musculus, UniProt Q9EPB4)
# T1 sequence (Q9EPB4 1-193): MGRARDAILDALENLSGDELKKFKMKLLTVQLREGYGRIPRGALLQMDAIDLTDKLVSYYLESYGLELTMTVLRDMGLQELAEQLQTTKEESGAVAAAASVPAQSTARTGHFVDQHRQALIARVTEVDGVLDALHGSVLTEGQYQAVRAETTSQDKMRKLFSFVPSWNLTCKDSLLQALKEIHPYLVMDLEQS
# Assay: Inflammasome activation in LPS-primed BMDMs of WT or bat ASC2/rtTA mice stimulated with nigericin
# Settings: WT BMDMs with or without 1 μg/ml Dox; FIG. 5B, 5C
structure (smiles),measurement,value
"C[C@H]1c2cccc(O)c2C(=O)C2=C(O)[C@]3(O)C(=O)C(C(N)=O)=C(O)[C@@H](N(C)C)[C@@H]3[C@@H](O)[C@@H]21 [Dox, Doxycycline hyclate, reference compound]",Effect on NLRP3 activation in WT BMDMs,no or minimal effect
